The source of these data is PMC11271386.

By UniProt entry, the sequences of proteins in these tests, tags left out. Where a name states a change or a piece, a line headed by the entry shows the natural chain unless it says otherwise. Residues count along the entry.
UniProt Q8NHS0: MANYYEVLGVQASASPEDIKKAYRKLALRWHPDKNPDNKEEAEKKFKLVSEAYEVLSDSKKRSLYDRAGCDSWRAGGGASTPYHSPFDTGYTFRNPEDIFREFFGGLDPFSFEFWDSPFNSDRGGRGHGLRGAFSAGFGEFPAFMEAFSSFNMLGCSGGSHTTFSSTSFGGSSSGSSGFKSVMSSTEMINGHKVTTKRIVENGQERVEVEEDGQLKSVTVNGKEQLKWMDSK
UniProt O75190: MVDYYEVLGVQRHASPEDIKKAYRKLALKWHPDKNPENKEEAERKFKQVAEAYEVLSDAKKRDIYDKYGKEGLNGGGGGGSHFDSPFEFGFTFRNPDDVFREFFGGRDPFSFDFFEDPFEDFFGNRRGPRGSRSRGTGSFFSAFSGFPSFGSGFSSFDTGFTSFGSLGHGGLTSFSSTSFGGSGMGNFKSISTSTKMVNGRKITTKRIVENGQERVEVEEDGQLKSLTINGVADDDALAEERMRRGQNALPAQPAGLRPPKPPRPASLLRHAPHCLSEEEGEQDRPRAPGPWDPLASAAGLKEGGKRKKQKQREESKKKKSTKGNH
UniProt P34932: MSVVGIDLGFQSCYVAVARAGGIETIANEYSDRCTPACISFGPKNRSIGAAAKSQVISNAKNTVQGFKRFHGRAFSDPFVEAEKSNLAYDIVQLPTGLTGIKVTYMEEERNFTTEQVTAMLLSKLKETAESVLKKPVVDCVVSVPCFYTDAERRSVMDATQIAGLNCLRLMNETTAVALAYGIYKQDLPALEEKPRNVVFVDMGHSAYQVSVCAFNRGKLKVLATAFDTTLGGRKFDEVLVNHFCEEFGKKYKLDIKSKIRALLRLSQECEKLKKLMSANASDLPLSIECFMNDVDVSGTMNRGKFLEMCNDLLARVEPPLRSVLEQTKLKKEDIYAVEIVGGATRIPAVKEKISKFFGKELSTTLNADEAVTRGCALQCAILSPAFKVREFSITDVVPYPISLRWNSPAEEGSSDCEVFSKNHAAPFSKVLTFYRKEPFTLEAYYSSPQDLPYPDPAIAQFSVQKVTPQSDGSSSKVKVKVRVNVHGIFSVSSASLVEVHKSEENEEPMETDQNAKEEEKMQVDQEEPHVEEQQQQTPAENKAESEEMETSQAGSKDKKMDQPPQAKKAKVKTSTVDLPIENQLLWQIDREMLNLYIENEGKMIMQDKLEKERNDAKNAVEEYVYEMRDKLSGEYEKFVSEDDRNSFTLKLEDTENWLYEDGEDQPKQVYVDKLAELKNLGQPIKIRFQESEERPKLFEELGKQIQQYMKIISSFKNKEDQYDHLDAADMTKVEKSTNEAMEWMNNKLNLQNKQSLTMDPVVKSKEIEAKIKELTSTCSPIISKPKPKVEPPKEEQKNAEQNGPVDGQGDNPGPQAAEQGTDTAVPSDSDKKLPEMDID
UniProt P11021, residues 19-654: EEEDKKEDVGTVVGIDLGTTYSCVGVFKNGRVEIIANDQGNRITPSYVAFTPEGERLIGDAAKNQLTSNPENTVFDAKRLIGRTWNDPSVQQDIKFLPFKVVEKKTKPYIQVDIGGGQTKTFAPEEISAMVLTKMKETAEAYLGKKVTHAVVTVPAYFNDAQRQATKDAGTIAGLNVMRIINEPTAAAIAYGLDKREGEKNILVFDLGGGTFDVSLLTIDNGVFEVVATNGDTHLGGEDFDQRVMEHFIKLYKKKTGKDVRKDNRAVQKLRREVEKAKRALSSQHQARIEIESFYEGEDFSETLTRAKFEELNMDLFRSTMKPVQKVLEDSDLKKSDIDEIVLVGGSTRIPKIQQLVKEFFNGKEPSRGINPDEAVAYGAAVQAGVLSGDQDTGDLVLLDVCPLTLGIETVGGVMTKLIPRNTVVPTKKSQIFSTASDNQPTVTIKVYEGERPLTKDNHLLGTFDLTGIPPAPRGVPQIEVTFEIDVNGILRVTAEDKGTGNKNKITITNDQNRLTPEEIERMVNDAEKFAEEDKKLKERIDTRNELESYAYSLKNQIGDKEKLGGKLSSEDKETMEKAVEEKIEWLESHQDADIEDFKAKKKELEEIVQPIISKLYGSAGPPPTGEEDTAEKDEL
UniProt P17066: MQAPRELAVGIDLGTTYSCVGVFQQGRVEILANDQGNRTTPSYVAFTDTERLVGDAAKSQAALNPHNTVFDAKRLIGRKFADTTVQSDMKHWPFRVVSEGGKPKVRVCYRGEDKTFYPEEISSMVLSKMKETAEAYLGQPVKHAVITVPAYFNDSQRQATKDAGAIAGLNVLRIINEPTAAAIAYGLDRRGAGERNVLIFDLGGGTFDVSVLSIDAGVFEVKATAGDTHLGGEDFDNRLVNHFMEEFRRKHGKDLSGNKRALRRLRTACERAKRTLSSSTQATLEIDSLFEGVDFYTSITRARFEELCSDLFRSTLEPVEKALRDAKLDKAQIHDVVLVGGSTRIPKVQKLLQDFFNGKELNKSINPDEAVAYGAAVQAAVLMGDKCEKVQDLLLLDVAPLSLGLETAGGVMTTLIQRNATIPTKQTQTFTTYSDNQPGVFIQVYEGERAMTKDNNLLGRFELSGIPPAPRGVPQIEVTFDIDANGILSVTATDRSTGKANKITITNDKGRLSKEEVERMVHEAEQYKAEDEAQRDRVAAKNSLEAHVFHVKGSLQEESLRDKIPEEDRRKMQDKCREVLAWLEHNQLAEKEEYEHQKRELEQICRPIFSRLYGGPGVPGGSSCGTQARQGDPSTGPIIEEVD
UniProt P11142: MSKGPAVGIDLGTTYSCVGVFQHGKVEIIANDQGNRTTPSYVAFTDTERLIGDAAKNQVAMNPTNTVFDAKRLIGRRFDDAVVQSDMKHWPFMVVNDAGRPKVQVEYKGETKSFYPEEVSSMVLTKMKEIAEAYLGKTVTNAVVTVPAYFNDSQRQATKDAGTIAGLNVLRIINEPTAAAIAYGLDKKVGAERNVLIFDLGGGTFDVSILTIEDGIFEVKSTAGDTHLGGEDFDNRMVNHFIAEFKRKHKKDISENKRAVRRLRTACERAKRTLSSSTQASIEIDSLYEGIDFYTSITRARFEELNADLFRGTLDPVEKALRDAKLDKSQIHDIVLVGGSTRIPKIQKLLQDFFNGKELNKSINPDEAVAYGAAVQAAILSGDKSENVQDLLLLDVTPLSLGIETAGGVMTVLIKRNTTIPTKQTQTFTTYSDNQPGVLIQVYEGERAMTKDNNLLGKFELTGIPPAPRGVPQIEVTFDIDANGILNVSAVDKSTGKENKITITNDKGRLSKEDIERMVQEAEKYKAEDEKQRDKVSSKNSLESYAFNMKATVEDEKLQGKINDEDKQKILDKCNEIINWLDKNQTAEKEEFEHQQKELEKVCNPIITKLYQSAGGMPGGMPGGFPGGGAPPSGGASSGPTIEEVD
UniProt P38646, residues 47-679: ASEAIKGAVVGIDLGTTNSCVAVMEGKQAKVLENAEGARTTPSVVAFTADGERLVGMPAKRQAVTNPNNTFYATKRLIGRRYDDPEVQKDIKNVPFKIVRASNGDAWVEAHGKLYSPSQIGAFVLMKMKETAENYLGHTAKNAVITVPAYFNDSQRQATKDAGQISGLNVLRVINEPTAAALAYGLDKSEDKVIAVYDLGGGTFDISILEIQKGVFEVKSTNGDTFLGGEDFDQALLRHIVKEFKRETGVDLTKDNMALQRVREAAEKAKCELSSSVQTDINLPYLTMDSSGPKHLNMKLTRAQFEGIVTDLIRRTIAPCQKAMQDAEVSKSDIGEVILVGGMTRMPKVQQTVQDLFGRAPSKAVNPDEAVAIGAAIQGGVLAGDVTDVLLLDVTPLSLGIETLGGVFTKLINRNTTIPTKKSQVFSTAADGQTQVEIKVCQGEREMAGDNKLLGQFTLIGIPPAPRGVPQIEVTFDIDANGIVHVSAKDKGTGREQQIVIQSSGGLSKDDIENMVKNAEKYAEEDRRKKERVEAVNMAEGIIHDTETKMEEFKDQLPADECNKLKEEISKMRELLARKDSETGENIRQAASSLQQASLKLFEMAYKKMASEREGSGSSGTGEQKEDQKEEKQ
UniProt P61604: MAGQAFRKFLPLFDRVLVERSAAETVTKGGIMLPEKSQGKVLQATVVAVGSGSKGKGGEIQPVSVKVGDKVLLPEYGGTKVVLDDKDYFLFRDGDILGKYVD
UniProt Q9UNE7: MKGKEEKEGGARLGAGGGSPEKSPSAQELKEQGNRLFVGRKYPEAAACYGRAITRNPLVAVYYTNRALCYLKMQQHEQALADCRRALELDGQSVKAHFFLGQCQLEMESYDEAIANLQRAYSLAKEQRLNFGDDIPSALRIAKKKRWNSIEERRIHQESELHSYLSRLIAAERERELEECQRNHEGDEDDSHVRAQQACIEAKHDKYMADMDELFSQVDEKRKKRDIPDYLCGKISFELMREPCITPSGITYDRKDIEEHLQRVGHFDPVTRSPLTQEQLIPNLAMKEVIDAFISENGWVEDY

Assay [1] addresses ^FlagDNAJB8^WT (human) (UniProt Q8NHS0). In words: affinity purification with mass spectrometry; ^FlagDNAJB8^WT or mock (eGFP) overexpressed in HEK293T; no crosslinking; RIPA lysis, M2 anti-Flag magnetic beads overnight at 4 °C, washed with RIPA; TMT labelling, MuDPIT LC–MS; nine biological replicates.
Another assay addresses ^FlagDNAJB8^H31Q (human) (UniProt Q8NHS0). In words: affinity purification with mass spectrometry; TMT-AP-MS comparing four conditions: ^FlagDNAJB8 WT vs. H31Q, with or without 1 mM DSP crosslinking of the cells before lysis; RIPA lysis and washes, M2 anti-Flag beads; crosslinks reversed with TCEP; three biological replicates.
For assay [2], the target named is ^FlagDNAJB8^WT (human) (UniProt Q8NHS0). The description is as above.

These are yes or no findings as the source states them, for the method shown. Binding seen in cells or lysates may run through a third protein. These calls come from enrichment with a bait or labelling near it, and not all partners need be listed.

Regarding “DNAJB1 (endogenous) (from UniProt P25685 1-340)”, in the assay with ^FlagDNAJB8^WT (human) [1], the binding result is listed as “binds”.

DNAJB6 (from UniProt O75190 1-326): in the assay with ^FlagDNAJB8^WT (human) [1], the binding entry was “binds”.

On to HSPA4 (from UniProt P34932 1-840), for which the binding result with ^FlagDNAJB8^WT (human) [1] is recorded as “binds”.

As for HSPA5 (from UniProt P11021 19-654), the binding entry in the assay with ^FlagDNAJB8^WT (human) [1], with ^FlagDNAJB8^H31Q (human) and with ^FlagDNAJB8^WT (human) [2] was “binds” in each case.

HSPA6 (from UniProt P17066 1-643): in the assay with ^FlagDNAJB8^WT (human) [1], the binding entry is “binds”.

For HSPA8 (from UniProt P11142 1-646), the binding entry with ^FlagDNAJB8^WT (human) [1] is reported as “binds”.

Regarding HSPA9 (from UniProt P38646 47-679), the binding entry with ^FlagDNAJB8^WT (human) [1], with ^FlagDNAJB8^H31Q (human) and in the assay with ^FlagDNAJB8^WT (human) [2] was “binds” throughout.

As to HSPE1 (from UniProt P61604 1-102), the binding entry with ^FlagDNAJB8^H31Q (human) and with ^FlagDNAJB8^WT (human) [2] was “binds” in each case.

As to STUB1 (from UniProt Q9UNE7 1-303), in the assay with ^FlagDNAJB8^WT (human) [1], the binding result is “binds”.
